{"source": "paper PMC8716824", "about": "“Design, Synthesis and Anti-Lung Cancer Evaluation of 1, 2, 3-Triazole Tethered Dihydroartemisinin-Isatin Hybrids” (Frontiers in Pharmacology, 2021)", "key": {"[1]": {"test_system": "doxorubicin-resistant A549 (A549/DOX) lung cancer cells", "experiment": "MTT antiproliferative assay, A549/DOX", "format": "cell-based", "conditions": "IC50(A549/DOX)/IC50(A549)", "method": "(§1) The antiproliferative activity of 1,2,3-triazole tethered dihydroartemisinin-isatin hybrids 8a-c and 9a-k against A549, multidrug-resistant A549/DOX and A549/DDP lung cancer cell lines as well as cytotoxicity towards mouse embryonic fibroblast cells NIH/3T3 were assessed by 3-(4,5-dimethylthiazol-2-yl)-2,5-diphenyltetrazolium bromide (MTT) assay, and half maximal inhibitory concentration (IC50) values were listed in Table 2. A549, A549/DOX, and A549/DDP lung cancer cells (2 × 10^3) were plated in each well of a 96-well plate and were allowed to adhere and spread for 24 h. The 1,2,3-triazole tethered dihydroartemisinin-isatin hybrids 8a-c and 9a-k were added to a final concentration of 100 μM, and the cells were cultured for 24 h at 37°C. 3-(4,5-dimethyl-2-thiazolyl)-2,5-diphenyltetrazolium bromide (MTT) solution (10 µL) was added to each well, and the cultures were incubated for an additional 4 h. A further 100 µL of […] was added and incubation continued overnight. The absorbance at 540 nm was determined in each well with a 96-well plate reader. The growth of the treated cells was compared with that of untreated cells."}, "[2]": {"test_system": "cisplatin-resistant A549 (A549/DDP) lung cancer cells", "experiment": "MTT antiproliferative assay, A549/DDP", "format": "cell-based", "conditions": "for RI2 (resistance index): IC50(A549/DDP)/IC50(A549); for folds more potent than cisplatin against A549/DDP: IC50 cisplatin / IC50 hybrid, A549/DDP cells", "method": "as §1"}}, "note": "Some compounds share one range, which may span the group rather than tell each member."}
{"smiles": "N.N.[Cl][Pt][Cl]", "note": "[cisplatin, reference compound]", "values": [{"measurement": "RI1 (resistance index)", "setting": "[1]", "result": 2.10}, {"measurement": "RI2 (resistance index)", "setting": "[2]", "result": 7.13}]}
{"smiles": "CON=C1C(=O)N(CCn2cc(COC3O[C@@H]4O[C@@]5(C)CC[C@H]6[C@H](C)CC[C@@H]([C@H]3C)[C@@]46OO5)nn2)c2ccc(OC)cc21", "note": "(stereo partly drawn) [9f, 5-methoxy-3-(methoxyimino)-1-(2-(4-((((3R,5aS,6R,8aS,9R,12R,12aR)-3,6,9-trimethyldecahydro-12H-3,12-epoxy[1,2]dioxepino[4,3-i]isochromen-10-yl)oxy)methyl)-1H-1,2,3-triazol-1-yl)ethyl)indolin-2-one]", "values": [{"measurement": "RI1 (resistance index)", "setting": "[1]", "result": 1.22}, {"measurement": "RI2 (resistance index)", "setting": "[2]", "result": 0.79}]}
{"smiles": "C[C@@H]1CC[C@H]2[C@@H](C)C(OCc3cn(CCN4C(=O)C(=NO)c5ccccc54)nn3)O[C@@H]3O[C@@]4(C)CC[C@@H]1[C@]32OO4", "note": "(stereo partly drawn) [9b, 3-(hydroxyimino)-1-(2-(4-((((3R,5aS,6R,8aS,9R,12R,12aR)-3,6,9-trimethyldecahydro-12H-3,12-epoxy[1,2]dioxepino[4,3-i]isochromen-10-yl)oxy)methyl)-1H-1,2,3-triazol-1-yl)ethyl)indolin-2-one]", "values": [{"measurement": "RI1 (resistance index)", "setting": "[1]", "result": 2.18}, {"measurement": "RI2 (resistance index)", "setting": "[2]", "result": 2.52}]}
{"smiles": "CCON=C1C(=O)N(CCn2cc(COC3O[C@@H]4O[C@@]5(C)CC[C@H]6[C@H](C)CC[C@@H]([C@H]3C)[C@@]46OO5)nn2)c2ccccc21", "note": "(stereo partly drawn) [9d, 3-(ethoxyimino)-1-(2-(4-((((3R,5aS,6R,8aS,9R,12R,12aR)-3,6,9-trimethyldecahydro-12H-3,12-epoxy[1,2]dioxepino[4,3-i]isochromen-10-yl)oxy)methyl)-1H-1,2,3-triazol-1-yl)ethyl)indolin-2-one]", "values": [{"measurement": "RI1 (resistance index)", "setting": "[1]", "result": 0.81}, {"measurement": "RI2 (resistance index)", "setting": "[2]", "result": 1.32}]}
{"smiles": "C[C@@H]1CC[C@H]2[C@@H](C)C(OCc3cn(CCN4C(=O)C(=O)c5cc(F)ccc54)nn3)O[C@@H]3O[C@@]4(C)CC[C@@H]1[C@]32OO4", "note": "(stereo partly drawn) [8c, 5-fluoro-1-(2-(4-((((3R,5aS,6R,8aS,9R,12R,12aR)-3,6,9-trimethyldecahydro-12H-3,12-epoxy[1,2]dioxepino[4,3-i]isochromen-10-yl)oxy)methyl)-1H-1,2,3-triazol-1-yl)ethyl)indoline-2,3-dione]", "values": [{"measurement": "RI1 (resistance index)", "setting": "[1]", "result": 1.31}, {"measurement": "RI2 (resistance index)", "setting": "[2]", "result": 1.16}, {"measurement": "folds more potent than cisplatin against A549/DDP", "setting": "[2]", "result": "4.6–7.6 folds"}]}
{"smiles": "C[C@@H]1CC[C@H]2[C@@H](C)C(OCc3cn(CCN4C(=O)C(=NOCc5ccccc5)c5ccccc54)nn3)O[C@@H]3O[C@@]4(C)CC[C@@H]1[C@]32OO4", "note": "(stereo partly drawn) [9e, 3-((benzyloxy)imino)-1-(2-(4-((((3R,5aS,6R,8aS,9R,12R,12aR)-3,6,9-trimethyldecahydro-12H-3,12-epoxy[1,2]dioxepino[4,3-i]isochromen-10-yl)oxy)methyl)-1H-1,2,3-triazol-1-yl)ethyl)indolin-2-one]", "values": [{"measurement": "RI1 (resistance index)", "setting": "[1]", "result": 1.92}, {"measurement": "RI2 (resistance index)", "setting": "[2]", "result": 1.83}]}
{"smiles": "COc1ccc2c(c1)C(=O)C(=O)N2CCn1cc(COC2O[C@@H]3O[C@@]4(C)CC[C@H]5[C@H](C)CC[C@@H]([C@H]2C)[C@@]35OO4)nn1", "note": "(stereo partly drawn) [8b, 5-methoxy-1-(2-(4-((((3R,5aS,6R,8aS,9R,12R,12aR)-3,6,9-trimethyldecahydro-12H-3,12-epoxy[1,2]dioxepino[4,3-i]isochromen-10-yl)oxy)methyl)-1H-1,2,3-triazol-1-yl)ethyl)indoline-2,3-dione]", "values": [{"measurement": "RI1 (resistance index)", "setting": "[1]", "result": 1.48}, {"measurement": "RI2 (resistance index)", "setting": "[2]", "result": 0.90}]}
{"smiles": "CON=C1C(=O)N(CCn2cc(COC3O[C@@H]4O[C@@]5(C)CC[C@H]6[C@H](C)CC[C@@H]([C@H]3C)[C@@]46OO5)nn2)c2ccc(F)cc21", "note": "(stereo partly drawn) [9j, 5-fluoro-3-(methoxyimino)-1-(2-(4-((((3R,5aS,6R,8aS,9R,12R,12aR)-3,6,9-trimethyldecahydro-12H-3,12-epoxy[1,2]dioxepino[4,3-i]isochromen-10-yl)oxy)methyl)-1H-1,2,3-triazol-1-yl)ethyl)indolin-2-one]", "values": [{"measurement": "RI1 (resistance index)", "setting": "[1]", "result": 1.35}, {"measurement": "RI2 (resistance index)", "setting": "[2]", "result": 3.98}]}
{"smiles": "C[C@@H]1CC[C@H]2[C@@H](C)C(OCc3cn(CCN4C(=O)C(=O)c5ccccc54)nn3)O[C@@H]3O[C@@]4(C)CC[C@@H]1[C@]32OO4", "note": "(stereo partly drawn) [8a, 1-(2-(4-((((3R,5aS,6R,8aS,9R,12R,12aR)-3,6,9-trimethyldecahydro-12H-3,12-epoxy[1,2]dioxepino[4,3-i]isochromen-10-yl)oxy)methyl)-1H-1,2,3-triazol-1-yl)ethyl)indoline-2,3-dione]", "values": [{"measurement": "RI1 (resistance index)", "setting": "[1]", "result": 1.45}, {"measurement": "RI2 (resistance index)", "setting": "[2]", "result": 1.29}, {"measurement": "folds more potent than cisplatin against A549/DDP", "setting": "[2]", "result": "4.6–7.6 folds"}]}
{"smiles": "CON=C1C(=O)N(CCn2cc(COC3O[C@@H]4O[C@@]5(C)CC[C@H]6[C@H](C)CC[C@@H]([C@H]3C)[C@@]46OO5)nn2)c2ccccc21", "note": "(stereo partly drawn) [9c, 3-(methoxyimino)-1-(2-(4-((((3R,5aS,6R,8aS,9R,12R,12aR)-3,6,9-trimethyldecahydro-12H-3,12-epoxy[1,2]dioxepino[4,3-i]isochromen-10-yl)oxy)methyl)-1H-1,2,3-triazol-1-yl)ethyl)indolin-2-one]", "values": [{"measurement": "RI1 (resistance index)", "setting": "[1]", "result": 0.86}, {"measurement": "RI2 (resistance index)", "setting": "[2]", "result": 1.20}]}
{"smiles": "COc1ccc2c(c1)C(=NOCc1ccccc1)C(=O)N2CCn1cc(COC2O[C@@H]3O[C@@]4(C)CC[C@H]5[C@H](C)CC[C@@H]([C@H]2C)[C@@]35OO4)nn1", "note": "(stereo partly drawn) [9h, 3-((benzyloxy)imino)-5-methoxy-1-(2-(4-((((3R,5aS,6R,8aS,9R,12R,12aR)-3,6,9-trimethyldecahydro-12H-3,12-epoxy[1,2]dioxepino[4,3-i]isochromen-10-yl)oxy)methyl)-1H-1,2,3-triazol-1-yl)ethyl)indolin-2-one]", "values": [{"measurement": "RI1 (resistance index)", "setting": "[1]", "result": 1.74}, {"measurement": "RI2 (resistance index)", "setting": "[2]", "result": 1.33}]}
{"smiles": "CCON=C1C(=O)N(CCn2cc(COC3O[C@@H]4O[C@@]5(C)CC[C@H]6[C@H](C)CC[C@@H]([C@H]3C)[C@@]46OO5)nn2)c2ccc(OC)cc21", "note": "(stereo partly drawn) [9g, 3-(ethoxyimino)-5-methoxy-1-(2-(4-((((3R,5aS,6R,8aS,9R,12R,12aR)-3,6,9-trimethyldecahydro-12H-3,12-epoxy[1,2]dioxepino[4,3-i]isochromen-10-yl)oxy)methyl)-1H-1,2,3-triazol-1-yl)ethyl)indolin-2-one]", "values": [{"measurement": "RI1 (resistance index)", "setting": "[1]", "result": 0.61}, {"measurement": "RI2 (resistance index)", "setting": "[2]", "result": 0.84}]}
{"smiles": "CCON=C1C(=O)N(CCn2cc(COC3O[C@@H]4O[C@@]5(C)CC[C@H]6[C@H](C)CC[C@@H]([C@H]3C)[C@@]46OO5)nn2)c2ccc(F)cc21", "note": "(stereo partly drawn) [9k, 3-(ethoxyimino)-5-fluoro-1-(2-(4-((((3R,5aS,6R,8aS,9R,12R,12aR)-3,6,9-trimethyldecahydro-12H-3,12-epoxy[1,2]dioxepino[4,3-i]isochromen-10-yl)oxy)methyl)-1H-1,2,3-triazol-1-yl)ethyl)indolin-2-one]", "values": [{"measurement": "RI1 (resistance index)", "setting": "[1]", "result": 1.97}, {"measurement": "RI2 (resistance index)", "setting": "[2]", "result": 1.82}]}
{"smiles": "C[C@H]1[C@@H](O)O[C@@H]2O[C@@]3(C)CC[C@H]4[C@H](C)CC[C@@H]1[C@@]24OO3", "note": "[DHA, Dihydroartemisinin]", "values": [{"measurement": "RI1 (resistance index)", "setting": "[1]", "result": 1.27}, {"measurement": "RI2 (resistance index)", "setting": "[2]", "result": 1.09}]}
{"smiles": "C[C@@H]1CC[C@H]2[C@@H](C)C(OCc3cn(CCN4C(=O)C(=NO)c5cc(F)ccc54)nn3)O[C@@H]3O[C@@]4(C)CC[C@@H]1[C@]32OO4", "note": "(stereo partly drawn) [9i, 5-fluoro-3-(hydroxyimino)-1-(2-(4-((((3R,5aS,6R,8aS,9R,12R,12aR)-3,6,9-trimethyldecahydro-12H-3,12-epoxy[1,2]dioxepino[4,3-i]isochromen-10-yl)oxy)methyl)-1H-1,2,3-triazol-1-yl)ethyl)indolin-2-one]", "values": [{"measurement": "RI1 (resistance index)", "setting": "[1]", "result": 1.75}, {"measurement": "RI2 (resistance index)", "setting": "[2]", "result": 1.57}, {"measurement": "folds more potent than cisplatin against A549/DDP", "setting": "[2]", "result": "4.6–7.6 folds"}]}
{"smiles": "C[C@@H]1CC[C@H]2[C@@H](C)C(OCc3cn(CCN4C(=O)C(=NNC(N)=S)c5ccccc54)nn3)O[C@@H]3O[C@@]4(C)CC[C@@H]1[C@]32OO4", "note": "(stereo partly drawn) [9a, 2-(2-oxo-1-(2-(4-((((3R,5aS,6R,8aS,9R,12R,12aR)-3,6,9-trimethyldecahydro-12H-3,12-epoxy[1,2]dioxepino[4,3-i]isochromen-10-yl)oxy)methyl)-1H-1,2,3-triazol-1-yl)ethyl)indolin-3-ylidene)hydrazine-1-carbothioamide]", "values": [{"measurement": "RI1 (resistance index)", "setting": "[1]", "result": 2.35}, {"measurement": "RI2 (resistance index)", "setting": "[2]", "result": 1.90}]}
